According to patent US20120022131A1:
Results are given in words; binding and its absence hold for the method and conditions named. Binding seen in cells or lysates may run through a third protein. Some results given as binding are weak or reduced against the parent protein; the word gives no strength. Sequences can lack the tags named with a protein.

Chains of the proteins cited; added tags and fusions are not shown. Lines headed by an entry give the natural chain unless they say otherwise; changes in a name come on top.
UniProt Q5R6Z6: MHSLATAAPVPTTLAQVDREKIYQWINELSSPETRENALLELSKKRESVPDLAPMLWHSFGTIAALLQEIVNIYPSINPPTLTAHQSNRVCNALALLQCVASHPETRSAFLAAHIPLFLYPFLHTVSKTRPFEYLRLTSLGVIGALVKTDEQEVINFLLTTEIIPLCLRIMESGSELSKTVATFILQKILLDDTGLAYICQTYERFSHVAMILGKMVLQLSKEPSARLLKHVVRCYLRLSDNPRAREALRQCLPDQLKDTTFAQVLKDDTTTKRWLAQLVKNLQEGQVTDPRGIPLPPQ

Experiments:
HA-tagged GIGYF1 (human) [1] = target: T1, HA-tagged GIGYF1 (human) (UniProt O75420); assay: co-immunoprecipitation in co-transfected HEK293T cells, both directions (anti-Flag and anti-HA agarose), western blot
T1 sequence: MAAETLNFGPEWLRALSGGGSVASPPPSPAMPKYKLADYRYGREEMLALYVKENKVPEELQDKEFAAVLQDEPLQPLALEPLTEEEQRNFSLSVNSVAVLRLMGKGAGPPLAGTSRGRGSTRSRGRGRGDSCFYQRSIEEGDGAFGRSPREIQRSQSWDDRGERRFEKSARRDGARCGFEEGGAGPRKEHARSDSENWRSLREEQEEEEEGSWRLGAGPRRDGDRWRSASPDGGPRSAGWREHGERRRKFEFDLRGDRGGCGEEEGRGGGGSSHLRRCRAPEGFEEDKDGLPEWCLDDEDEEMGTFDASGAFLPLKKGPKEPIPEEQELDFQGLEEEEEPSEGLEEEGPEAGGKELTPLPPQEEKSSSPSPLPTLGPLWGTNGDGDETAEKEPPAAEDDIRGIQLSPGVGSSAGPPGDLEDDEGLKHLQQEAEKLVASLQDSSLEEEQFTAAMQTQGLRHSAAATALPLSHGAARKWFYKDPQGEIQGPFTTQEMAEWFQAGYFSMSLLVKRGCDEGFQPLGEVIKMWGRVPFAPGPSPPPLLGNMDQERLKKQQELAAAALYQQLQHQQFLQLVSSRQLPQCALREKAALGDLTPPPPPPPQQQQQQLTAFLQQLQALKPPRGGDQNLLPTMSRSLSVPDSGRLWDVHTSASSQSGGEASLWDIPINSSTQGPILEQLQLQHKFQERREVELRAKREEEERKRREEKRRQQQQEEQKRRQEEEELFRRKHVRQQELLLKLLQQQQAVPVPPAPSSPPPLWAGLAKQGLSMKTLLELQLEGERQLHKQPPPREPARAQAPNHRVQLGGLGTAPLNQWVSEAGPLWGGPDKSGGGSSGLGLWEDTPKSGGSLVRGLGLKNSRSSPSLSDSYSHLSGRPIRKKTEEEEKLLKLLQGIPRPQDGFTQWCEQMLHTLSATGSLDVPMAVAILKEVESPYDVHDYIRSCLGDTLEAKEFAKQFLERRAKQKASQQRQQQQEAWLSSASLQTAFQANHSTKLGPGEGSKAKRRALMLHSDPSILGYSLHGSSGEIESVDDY

HA-tagged GIGYF2 (human) [2] = target: T2, HA-tagged GIGYF2 (human) (UniProt Q6Y7W6); assay: as above
T2 sequence: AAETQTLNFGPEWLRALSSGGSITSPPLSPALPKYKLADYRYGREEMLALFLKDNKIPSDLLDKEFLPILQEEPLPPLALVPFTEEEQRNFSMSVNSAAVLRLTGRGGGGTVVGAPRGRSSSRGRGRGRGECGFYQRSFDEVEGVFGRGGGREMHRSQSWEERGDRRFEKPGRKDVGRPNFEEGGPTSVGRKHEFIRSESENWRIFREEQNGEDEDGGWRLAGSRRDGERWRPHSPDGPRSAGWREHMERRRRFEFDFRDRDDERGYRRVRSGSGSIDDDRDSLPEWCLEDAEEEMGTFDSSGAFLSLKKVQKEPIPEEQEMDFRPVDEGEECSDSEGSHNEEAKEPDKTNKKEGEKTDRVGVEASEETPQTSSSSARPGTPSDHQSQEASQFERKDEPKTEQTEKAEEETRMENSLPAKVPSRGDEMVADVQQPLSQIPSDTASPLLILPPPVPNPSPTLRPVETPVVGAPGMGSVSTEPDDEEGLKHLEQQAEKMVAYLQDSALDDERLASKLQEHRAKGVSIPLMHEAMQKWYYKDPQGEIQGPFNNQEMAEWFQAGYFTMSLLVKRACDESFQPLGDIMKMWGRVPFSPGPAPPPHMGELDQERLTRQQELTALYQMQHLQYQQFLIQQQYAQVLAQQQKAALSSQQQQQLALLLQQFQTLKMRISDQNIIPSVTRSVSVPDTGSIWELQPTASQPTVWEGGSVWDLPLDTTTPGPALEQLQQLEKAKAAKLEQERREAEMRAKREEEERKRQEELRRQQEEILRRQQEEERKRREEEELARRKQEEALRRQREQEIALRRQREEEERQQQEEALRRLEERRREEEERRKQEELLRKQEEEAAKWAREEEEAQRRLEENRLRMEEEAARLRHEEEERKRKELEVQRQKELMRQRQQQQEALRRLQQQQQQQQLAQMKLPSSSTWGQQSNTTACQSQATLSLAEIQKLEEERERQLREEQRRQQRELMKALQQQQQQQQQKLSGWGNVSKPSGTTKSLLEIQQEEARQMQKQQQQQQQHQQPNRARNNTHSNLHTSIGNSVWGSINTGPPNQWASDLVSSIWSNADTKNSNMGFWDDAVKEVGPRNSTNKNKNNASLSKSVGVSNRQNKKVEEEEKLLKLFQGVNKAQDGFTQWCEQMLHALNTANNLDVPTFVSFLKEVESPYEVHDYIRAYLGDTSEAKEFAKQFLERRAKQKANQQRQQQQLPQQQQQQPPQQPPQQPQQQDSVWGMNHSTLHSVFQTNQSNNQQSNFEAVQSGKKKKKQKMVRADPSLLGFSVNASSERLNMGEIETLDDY

HA-tagged GIGYF1 (human) [3] = target: T1, HA-tagged GIGYF1 (human); assay: co-immunoprecipitation in HEK293T cells, peptide elution, western blot (figure legend)
HA-tagged GIGYF2 (human) [4] = target: T2, HA-tagged GIGYF2 (human); assay: as above

Measured: binding

Flag-tagged RQCD1 (from UniProt Q5R6Z6 1-299)
binds: all assays above
